According to the supplement of paper PMC6078165:

Tested on: Hs578T
Assay: relative JC-1 red fluorescence (viability) vs pre-drug, coculture with fibroblast (fraction); higher = more viable cancer cells
Description: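 JC-1 labelled TNBC cells cocultured 1:1 (1,500 cells each) with CellTrace Violet stained primary or stromal fibroblasts in 384-well plates in FluoroBrite medium, treated with one of 42 anticancer drugs at 0.1, 1, 10 or 100 uM. JC-1 red fluorescence (mitochondrial integrity in cancer cells only) was read by plate reader every 8 h for 72 h. Values are normalised to each well's pre-drug value. The stock of one drug was tenfold lower, so its dose labels may be too high.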

O=C(O)CCCc1ccc(N(CCCl)CCCl)cc1 [Chlorambucil]
relative JC-1 red fluorescence
Settings	8 h	16 h	24 h	32 h	40 h	48 h	56 h	64 h	72 h
10 µM	0.892	0.818	0.76	0.718	0.646	0.611	0.574	0.528	0.517
100 µM	0.92683	0.822	0.72	0.666	0.602	0.548	0.509	0.461	0.439

relative JC-1 red fluorescence
Settings	8 h	16 h	24 h	32 h	40 h	48 h	56 h	64 h	72 h
10 µM, coculture fibroblast: C12385	0.786	0.721	0.685	0.594	0.532	0.497	0.466	0.448	0.439
10 µM, coculture fibroblast: H6013	0.826	0.768	0.709	0.669	0.627	0.603	0.584	0.57	0.539
10 µM, coculture fibroblast: H6019	0.787	0.702	0.6657	0.5683	0.525	0.507	0.475	0.461	0.439
10 µM, coculture fibroblast: H6076	0.9	0.84	0.785	0.768	0.723	0.7162	0.6982	0.688	0.687
10 µM, coculture fibroblast: H6231	0.862	0.773	0.727	0.693	0.637	0.615	0.574	0.557	0.544
10 µM, coculture fibroblast: HADF	0.847	0.754	0.677	0.615	0.56	0.537	0.505	0.486	0.453
10 µM, coculture fibroblast: HCFa	0.813	0.72558	0.667	0.619	0.555	0.532	0.506	0.499	0.476
10 µM, coculture fibroblast: HCPF	0.89	0.829	0.773	0.7406	0.681	0.652	0.624	0.581	0.548
10 µM, coculture fibroblast: HHSteC	0.844	0.787	0.736	0.674	0.62996	0.595	0.577	0.559	0.537
10 µM, coculture fibroblast: HMF	0.896	0.819	0.735	0.697	0.627	0.59	0.548	0.515	0.496
10 µM, coculture fibroblast: HPFa	0.878	0.794	0.741	0.694	0.656	0.628	0.605	0.587	0.549
10 µM, coculture fibroblast: HUF	0.8331	0.7212	0.7	0.598	0.545	0.512	0.48	0.469	0.457
10 µM, coculture fibroblast: Hs27A	0.924	0.843	0.8	0.745	0.685	0.663	0.619	0.61	0.558
10 µM, coculture fibroblast: Hs343T	0.92	0.8092	0.716	0.676	0.593	0.554	0.501	0.474	0.457
10 µM, coculture fibroblast: WS1	0.805	0.706	0.659	0.576	0.52	0.492	0.45	0.434	0.419
100 µM, coculture fibroblast: C12385	0.836	0.724	0.639	0.528	0.46	0.421	0.374	0.346	0.331
100 µM, coculture fibroblast: H6013	0.897	0.8455	0.779	0.755	0.721	0.712	0.692	0.685	0.655
100 µM, coculture fibroblast: H6019	0.796	0.694	0.655	0.559	0.51	0.475	0.44	0.421	0.392
100 µM, coculture fibroblast: H6076	0.913	0.836	0.7765	0.758	0.725	0.709	0.673	0.664	0.653
100 µM, coculture fibroblast: H6231	0.898	0.813	0.73773	0.7	0.636	0.597	0.55	0.517	0.493
100 µM, coculture fibroblast: HADF	0.8994	0.811	0.755	0.708	0.654	0.615	0.569	0.538	0.495
100 µM, coculture fibroblast: HCFa	0.891	0.816	0.751	0.695	0.635	0.615	0.583	0.57	0.529
100 µM, coculture fibroblast: HCPF	0.9086	0.8313	0.7574	0.7117	0.6467	0.613	0.5746	0.5179	0.4762
100 µM, coculture fibroblast: HHSteC	0.92	0.827	0.746	0.69	0.627	0.589	0.554	0.529	0.491
100 µM, coculture fibroblast: HMF	0.942	0.868	0.789	0.7469	0.6893	0.652	0.595	0.554	0.519
100 µM, coculture fibroblast: HPFa	0.928	0.8474	0.749	0.673	0.614	0.57	0.523	0.488	0.4427
100 µM, coculture fibroblast: HUF	0.867	0.74	0.697	0.583	0.515	0.471	0.43	0.403	0.386
100 µM, coculture fibroblast: Hs27A	0.89935	0.8686	0.809	0.77	0.721	0.711	0.676	0.663	0.608
100 µM, coculture fibroblast: Hs343T	0.9544	0.861	0.7586	0.727	0.648	0.606	0.531	0.483	0.443
100 µM, coculture fibroblast: WS1	0.8301	0.737	0.671	0.565	0.496	0.463	0.419	0.396	0.372

Values are relative to the signal before dosing, not to a vehicle control; the signal also falls without drug.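 Fibroblast labels name human fibroblasts: mostly primary ones from tissues such as uterus (C12385, HUF), lung (H6013), bone (Hs27A), adrenal (HADF) and skin (WS1), plus mammary HMF and breast cancer-associated Hs343T. The cancer cells are basal-like or mesenchymal-like triple-negative breast cancer lines. The paper calls a changed response a hit when it shifts by more than 3x the replicate standard deviation. The tissue of the other fibroblasts is not given here.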
